Test results as given in article PMC6250434.
Results are given in words; binding and its absence hold for the method and conditions named. In cells and extracts the contact can be indirect. Tags and fused reporters may be left off the sequences shown.

Chains of the proteins cited; added tags and fusions are not shown.
UniProt O14980: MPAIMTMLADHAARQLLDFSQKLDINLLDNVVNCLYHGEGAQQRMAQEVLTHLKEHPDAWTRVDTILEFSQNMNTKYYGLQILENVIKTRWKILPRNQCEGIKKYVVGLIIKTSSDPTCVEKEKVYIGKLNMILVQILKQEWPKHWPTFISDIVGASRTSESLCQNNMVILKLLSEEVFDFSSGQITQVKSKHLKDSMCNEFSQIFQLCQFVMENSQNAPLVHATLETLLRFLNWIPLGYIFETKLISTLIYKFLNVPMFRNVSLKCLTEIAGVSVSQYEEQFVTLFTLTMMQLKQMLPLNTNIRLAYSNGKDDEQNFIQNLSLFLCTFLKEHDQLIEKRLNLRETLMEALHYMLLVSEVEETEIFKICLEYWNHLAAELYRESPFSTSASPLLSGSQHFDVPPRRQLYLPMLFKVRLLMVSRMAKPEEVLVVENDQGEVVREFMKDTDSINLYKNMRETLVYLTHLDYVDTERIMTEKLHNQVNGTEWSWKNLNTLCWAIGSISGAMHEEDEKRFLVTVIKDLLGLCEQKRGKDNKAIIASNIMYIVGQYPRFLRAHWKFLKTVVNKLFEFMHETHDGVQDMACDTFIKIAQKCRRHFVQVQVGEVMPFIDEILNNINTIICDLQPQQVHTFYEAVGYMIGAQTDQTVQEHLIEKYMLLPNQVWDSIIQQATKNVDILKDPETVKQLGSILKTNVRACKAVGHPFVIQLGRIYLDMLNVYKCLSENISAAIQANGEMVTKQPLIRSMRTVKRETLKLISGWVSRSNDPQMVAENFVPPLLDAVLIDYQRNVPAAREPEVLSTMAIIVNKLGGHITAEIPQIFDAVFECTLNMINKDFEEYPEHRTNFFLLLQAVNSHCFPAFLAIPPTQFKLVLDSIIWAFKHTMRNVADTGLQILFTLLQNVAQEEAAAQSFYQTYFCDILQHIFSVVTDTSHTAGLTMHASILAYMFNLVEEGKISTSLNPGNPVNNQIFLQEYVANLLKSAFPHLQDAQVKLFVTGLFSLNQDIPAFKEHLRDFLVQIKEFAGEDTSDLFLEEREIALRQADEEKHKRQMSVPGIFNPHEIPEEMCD

Molecular target: exportin1 (chromosome region maintenance 1, CRM1) (human (endogenous in U2OS)) (UniProt O14980)
Test: co-IP; total lysates of U2OS cells transfected with control vector, HA-FIH 1–349 or HA-FIH ΔNES, immunoprecipitated with anti-exportin1 antibody, blotted for HA-FIH; pNAS buffer, 16 h at 4°C

B1: HA-tagged FIH lacking the predicted NES 128–137 (HA-FIH ΔNES) (enzyme, UniProt Q9NWT6)
chain: MAATAAEAVASGSGEPREEAGALGPAWDESQLRSYSFPTRPIPRLSQSDPRAEELIENEEPVVLTDTNLVYPALKWDLEYLQENIGNGDFSVYSASTHKFLYYDEKKMANFQNFKPRSNREEMKFHERGGEERLYLQQTLNDTVGRKIVMDFLGFNWNWINKQQGKRGWGQLTSNLLLIGMEGNVTPAHYDEQQNFFAQIKGYKRCILFPPDQFECLYPYPVHHPCDRQSQVDFDNPDYERFPNFQNVVGYETVVGPGDVLYIPMYWWHHIESLLNGGITITVNFWYKGAPTPKRIEYPLKAHQKVAIMRNIEKMLGEALGNPQEVGPLLNTMIKGRYN
  binding: no binding
